Results deposited as PubChem BioAssay AID504808 (Drosophila RNAi Screening Center, 2011).

Purpose: 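Genes whose loss lifts activity of an E2F-responsive reporter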 (primary screen)
Cells: Drosophila S2 cells
Reagents: long dsRNA against Drosophila genes
Read-out: 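Firefly luciferase driven by E2F sites, normalised to Renilla luciferase on the same minimal promoter, measured by plate reader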
Reading the numbers: E2F firefly: higher = more E2F reporter activity; Renilla normaliser: higher = more normaliser reporter signal
Rule for the call: 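Called active if the normalised E2F reporter went up by over 50%; the cutoff is arbitrary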
In all, the deposit lists about 21,000 reagents; below is an unselected part of those with a known target gene and a result. In the full data, 18 (0.084%) got an active call. 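Raw counts without plate normalisation, one of two replicates; the ratio scores behind the calls were not deposited.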 Names joined by + are all predicted targets of the reagent. Not stated in the record: the amount of reagent, the time to read-out.

predicted target	dsRNA	E2F firefly, rep 1	Renilla normaliser, rep 1	activity call
Gr21a	DRSC00366	1.77e5	6338	inactive
Picot	DRSC07508	61309	3111	inactive
CG17159 + CG17162	DRSC20899	1.25e5	6047	inactive
CG17159 + CG17162	DRSC20900	1.36e5	6710	inactive
B52	DRSC14121	80046	3279	inactive
CG14234	DRSC19317	66044	2672	inactive
CG14234	DRSC19589	1.28e5	6681	inactive
Acsx1L	DRSC16014	1.36e5	6596	inactive
Eig71Ef	DRSC11153	1.63e5	7610	inactive
Phm	DRSC04639	89610	4823	inactive
chinmo	DRSC00292	80500	3860	inactive
chinmo	DRSC00485	1.36e5	4763	inactive
chinmo	DRSC00509	1.56e5	5863	inactive
Ac78C	DRSC11467	79982	4600	inactive
Ac78C	DRSC11602	1.27e5	6591	inactive
Ac78C	DRSC11619	1.42e5	7480	inactive
CG34051	DRSC01739	78434	3777	inactive
scat	DRSC02722	91823	3960	inactive
UBL3	DRSC20298	2.24e5	7306	inactive
Pten	DRSC03402	1.48e5	5334	inactive
QC	DRSC09736	75830	3499	inactive
CG8407	DRSC07167	82707	3560	inactive
Rcd4	DRSC02597	1.40e5	4918	inactive
mRpL35	DRSC14586	1.38e5	8744	inactive
ND-20	DRSC20164	7698	748	inactive
fw	DRSC20334	78587	4912	inactive
chic	DRSC03507	1.48e5	5487	inactive
CG12535	DRSC17838	1.06e5	5069	inactive
Cpr64Ad	DRSC08284	93863	4365	inactive
Taf5	DRSC07562	2394	169	inactive
CG42238	DRSC03180	83920	3287	inactive
SdhAL	DRSC10539	77178	3583	inactive
Snx27	DRSC17786	1.09e5	5662	inactive
Snx27	DRSC18282	1.13e5	5385	inactive
Snx27	DRSC18284	1.20e5	4892	inactive

Just “E2F firefly, rep 1” (2 entries from above):
chic [DRSC03507]: 1.48e5
CG12535 [DRSC17838]: 1.06e5
